Results published in the RNAGym collection of RNA variant scans (doi:10.1126/science.aae0568).
This sample is rich in variants without activity.

B1: tRNA (parent)
chain: GUUCCGUUGGCGUAAUGGUAACGCGUCUCCCUCCUAAGGAGAAGACUGCGGGUUCGAGUCCCGUACGGAACG

Variants of: B1
Assay: yeast fitness relative to wild type (ratio to wild type); higher = fitter; tRNA-Arg(CCU), competitive growth, 37 C, YPD
In short: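 Gene amplicons from the start population and from each of six end populations were read by 100-nucleotide paired-end sequencing. Those end populations came from pooled Saccharomyces cerevisiae strains carrying tRNA-Arg(CCU) gene variants at the native locus, competed in YPD at 37°C for 24 hours. Fitness relative to wild type was worked out from changes in genotype frequencies. Genotypes needed ≥ 100 starting reads, and estimates < 0.5 were set to 0.5.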

| Variant | yeast fitness |
| --- | --- |
| U2A U28G A37G C62A | ≤ 0.5 |
| C22U A42G C62G | ≤ 0.5 |
| A14C G18C U28A C30G A43G A57G C60U A65C G67U | 0.557 |
| A36G G38C G63A | ≤ 0.5 |
| C5G U7C G25A U64C G68A | ≤ 0.5 |
| C11A U28A G67C | ≤ 0.5 |
| G39C G51A C66U | ≤ 0.5 |
| C24G C27G U54A A57U C61G A70U | ≤ 0.5 |
| C4U U13C U26A G63C | ≤ 0.5 |
| C4A C27A C31U A43G C61U A65C | ≤ 0.5 |
| C24G A40G U53A G68C | ≤ 0.5 |
| C5G C33G A36U G39A A40G G63U | ≤ 0.5 |
| C31G C60U A69U | ≤ 0.5 |
| G12A A15U G67A A70G | ≤ 0.5 |
| U28C U35A | 0.578 |
| C4G G10A C30G A43G G56C | ≤ 0.5 |
| U3A C5G A21U A36C | ≤ 0.5 |
| U7A C46A G50C G58A | ≤ 0.5 |
| C4A C24G G38C | ≤ 0.5 |
| A14G U54A | ≤ 0.5 |
| U47A C61U A70C | 0.558 |
| C24U U28C G56A C62G | ≤ 0.5 |
| C55G A65G C66G A70G | ≤ 0.5 |
| A20C G44C G48A G51A | ≤ 0.5 |

| Variant | yeast fitness |
| --- | --- |
| G10C C11U A20C A57U | ≤ 0.5 |
| C34G A37U G39A A57U | ≤ 0.5 |
| U16C C49U A57G | ≤ 0.5 |
| A14C G17C C24U C62G C66U | ≤ 0.5 |
| C5U C11U C27U C31G A43C C49G G52C U59A | ≤ 0.5 |
| A14U U16G C33G G50A G58C G63C | ≤ 0.5 |
| C5G U26A A36C U64C | ≤ 0.5 |
| A37G A42U A65C A69C | ≤ 0.5 |
| C22U A43C C66G A69U | ≤ 0.5 |
| C4G A14U C33G U47G A57G | ≤ 0.5 |
| U8C U26A U53A | ≤ 0.5 |
| A15G A20U C29G A43G G58C A69U | ≤ 0.5 |
| U16G C29U | 0.806 |
| U8A A15C G18C C49U U64A | ≤ 0.5 |
| A15C C27G G67C | ≤ 0.5 |
| G17C C29U A57C | ≤ 0.5 |
| G25C C29G G52A | ≤ 0.5 |
| C27U C33G A57G | ≤ 0.5 |
| C4G C24A C46U C60A | 0.521 |
| C5U G6C U32C | ≤ 0.5 |
| U8C G23U A42G C60A | ≤ 0.5 |
| U2G C4G C11A G68A | ≤ 0.5 |
| C27A C31U A43G U54C C61U A65C | ≤ 0.5 |
| C11G C29U C34U G52A C62A C66U | ≤ 0.5 |

| Variant | yeast fitness |
| --- | --- |
| G6A C24U G52A C61A | ≤ 0.5 |
| U16G C30G G52C | ≤ 0.5 |
| A15G U35G A43G A45G C66U | ≤ 0.5 |
| C29U C30G C34A | ≤ 0.5 |
| C27G C29G C49U G63C | ≤ 0.5 |
| C22U G25C U28C A36G G51A | ≤ 0.5 |
| C33A U35C C46U C49U G51A G52C C61U C66U | ≤ 0.5 |
| C22G C24G C66U A70C | ≤ 0.5 |
| C34U A36G G50A G56C | ≤ 0.5 |
| C5U G9C A42G C49G | ≤ 0.5 |
| C29G G48A G56A A69U | ≤ 0.5 |
| G56C C60G | ≤ 0.5 |
| G6A U13C G52A U59C C66A G67A | ≤ 0.5 |
| A14G A42G C61G C66A | ≤ 0.5 |
| U2G A42U U47A | 0.738 |
| G18C G25C U28G A42G U47C C49U A57U | ≤ 0.5 |
| U2G U7C G18C A42U C49G | ≤ 0.5 |
| C24G A36U A42C C55U | ≤ 0.5 |
| U8A G18C C24A U32C C49U G52C | ≤ 0.5 |
| U7A C31A A65G | ≤ 0.5 |
| C11U C24G C33A A40C U53C | 0.626 |
| C11G G58A | 0.722 |
| C29U C61U G67A | ≤ 0.5 |
| U2A U7C U16C C30A | ≤ 0.5 |

| Variant | yeast fitness |
| --- | --- |
| C24G C27U C33U G50C C66U | ≤ 0.5 |
| G12A U19C C34G C66U A69U | 0.59 |
| A20G G50A A70C | ≤ 0.5 |
| G10A C49U U54C C66A A69C | ≤ 0.5 |
| A14C C62G C66A | ≤ 0.5 |
| U3C U13C C24U G52A G68U | ≤ 0.5 |
| C22U C24U A37U G51A U54A U59C | ≤ 0.5 |
| U13C G18A C24A C61G | ≤ 0.5 |
| C4U G44C C60U C62G | ≤ 0.5 |
| G6A C29G U32C A69G | ≤ 0.5 |
| C29U C49U C55G | ≤ 0.5 |
| G25C U35A C60G G67A | ≤ 0.5 |
| A14G G39C C55U | ≤ 0.5 |
| C4U U8A C24U C62U G68C A69G | ≤ 0.5 |
| C5A C11G A36G G41C | ≤ 0.5 |
| A43U G56C | 0.702 |
| C46U C60U A65C | 0.589 |
| G25C G63A | 0.955 |
| C4G A37C C61A | ≤ 0.5 |
| A21G A40C C55A | ≤ 0.5 |
| C29G C33U C61A G68U | ≤ 0.5 |
| A14U C29U A37U | ≤ 0.5 |
| C24U C31A C33A C34U C46A G67A | ≤ 0.5 |
| G6A A20U G52C G63C A69U | ≤ 0.5 |

| Variant | yeast fitness |
| --- | --- |
| G9A U26A A43U A65C | ≤ 0.5 |
| G12C C27A G67U | ≤ 0.5 |
| U2A G6C A21G U32C U59G C66U A70C | ≤ 0.5 |
| C11G C30G C31G U32A A57G C62A | ≤ 0.5 |
| C4U U7A A20G G23A U26G | ≤ 0.5 |
| U2A U19G C29G C49A G51C A65C | ≤ 0.5 |
| C4A C55A C60A | ≤ 0.5 |
| C30U G39C | 0.682 |
| A36U G48A G50U A57U | ≤ 0.5 |
| U13G A21C A65C C66U | ≤ 0.5 |
| A37C A57G | 0.665 |
| U2G G10C C66A | ≤ 0.5 |
| C4U C46A G67C | ≤ 0.5 |
| U2A G6A C11G C49U U54C G58C | ≤ 0.5 |
| G25C C55U A69U | 0.609 |
| G25C C60A C62G | ≤ 0.5 |
| G38C U53G U59G C62A | ≤ 0.5 |
| C29G G50A | 0.605 |
| A21U C29U A42U C55A U59A C66A A69G | ≤ 0.5 |
| A14U C24G G41A G44A U47C U53A C66U | ≤ 0.5 |
| G6A A14G C22G U35G A40C A70G | ≤ 0.5 |
| C11A U28G C33A A45G | ≤ 0.5 |
| G10C A20G | 0.775 |
| C4U G12C U54G | ≤ 0.5 |

| Variant | yeast fitness |
| --- | --- |
| G12C C27A C66A | ≤ 0.5 |
| C24G C27U G50A G52A C66U | ≤ 0.5 |
| G23C C34G A36U U54G C62G | ≤ 0.5 |
| C11U A40U G67A | ≤ 0.5 |
| A14G C31G A37G | ≤ 0.5 |
| C11U C33G A36G C49A A65G C66U | ≤ 0.5 |
| C11U C27G A43U G63A | ≤ 0.5 |
| U32G G39C G52C A65C | ≤ 0.5 |
| C5A C29U G48C U53C | ≤ 0.5 |
| G9A G10C G25C C33U C62A C66U | ≤ 0.5 |
| G25A U53A | 0.741 |
| C4U A14C A15U U64G C66A | ≤ 0.5 |
| U7C A37G C55A G58C | ≤ 0.5 |
| G12A C24A A57G | ≤ 0.5 |
| G10C A21C C66G | ≤ 0.5 |
| A21G G56U G58C | 0.661 |
| C11A A20U C29U C33G G51A | ≤ 0.5 |
| A14U C60G A70C | ≤ 0.5 |
| C4G A15G G17A C34A | ≤ 0.5 |
| C4U G10C A14C C27G U53A | ≤ 0.5 |
| A21U U35C G44A G48C C55G A69U | ≤ 0.5 |
| G9C U59A | 0.737 |
| U3G C4G C27U A70C | ≤ 0.5 |
| C11A A43G C46G A65U | ≤ 0.5 |

| Variant | yeast fitness |
| --- | --- |
| U2C C34G U59A | ≤ 0.5 |
| C11G U28A A65U G67A | ≤ 0.5 |
| G10C A20G A43U G48A G51A | ≤ 0.5 |
| U7C G67A | 0.863 |
| G9A G25A A43G | ≤ 0.5 |
| C5G U8G U26A | ≤ 0.5 |
| C11A U35A C61U | ≤ 0.5 |
| C29A C30G A45U C66A | ≤ 0.5 |
| U8G A15G C24U C29G A45C | ≤ 0.5 |
| C4A C22U U54A | 0.685 |
| C22G C24G C29U C33U A37C U54G A65U G67A | ≤ 0.5 |
| C34A A37U G44A G51A C55A | 0.603 |
| U16A U32C A37U C49G A70U | ≤ 0.5 |
| U2C G39C C61G | ≤ 0.5 |
| G6A C31A C60A | ≤ 0.5 |
| U13A C22G G25C C27U C30G | ≤ 0.5 |
| U7G A21U C29A C55A C66U | ≤ 0.5 |
| A15C C22U A42U U47A C66U | ≤ 0.5 |
| U13G C46G | 1.12 |
| A14G U26A C27G | ≤ 0.5 |
| G25A U53A C66U | ≤ 0.5 |
| G18C G23A G25C A37G A43C U54C C55G G68A | ≤ 0.5 |
| U35C A45C C49G | 0.562 |
